Test results taken from US20240158480A1 (ACADEMY OF MILITARY MEDICAL SCIENCE PLA, published 2024).
Results are given in words; binding and its absence hold for the method and conditions named. Some entries that bind do so weakly or less than the wild type.

The chains behind the UniProt entries cited, without tags or fusion partners. Residues count along the entry.
UniProt Q9IH62, residues 71-602: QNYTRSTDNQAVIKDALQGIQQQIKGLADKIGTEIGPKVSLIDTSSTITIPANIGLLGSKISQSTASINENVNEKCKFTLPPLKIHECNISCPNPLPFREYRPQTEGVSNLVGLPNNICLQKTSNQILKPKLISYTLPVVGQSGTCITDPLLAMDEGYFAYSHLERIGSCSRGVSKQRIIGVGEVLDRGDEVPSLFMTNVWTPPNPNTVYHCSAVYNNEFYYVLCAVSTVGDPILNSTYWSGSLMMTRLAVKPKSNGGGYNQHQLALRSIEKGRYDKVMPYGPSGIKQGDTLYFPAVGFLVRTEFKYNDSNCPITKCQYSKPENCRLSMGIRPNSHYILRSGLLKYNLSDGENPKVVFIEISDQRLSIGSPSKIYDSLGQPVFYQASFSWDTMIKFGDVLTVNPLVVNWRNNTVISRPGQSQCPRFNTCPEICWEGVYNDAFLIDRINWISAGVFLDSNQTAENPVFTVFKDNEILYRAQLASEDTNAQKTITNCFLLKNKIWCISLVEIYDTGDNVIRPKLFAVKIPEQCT

Biological target: NiV-MY G (Nipah virus, Malaysia strain (NiV-MY)) (UniProt Q9IH62)
Test: ELISA, G protein coated

B1: 2B6 (antibody, V domains shown)
VH: QVQLVQSGAEVKKPGASVKLSCKASGYTFTSFYINWVRQAPGQVLEWMGWINPSNGDTGYAQKFQGRVTMSRDTSTSTAYMELSSLRSEDTAVYYCTRETVGSGTFDCWGQGVLVTVSS
VL: DIVMTQTPLSLSVTLGEPASISCRSSQSLVYSAGKTYLDWYLQKPGQSPQLLIYLVSKRASGVPDKFSGSGSGTDFTLKISRVEAEDVGVYYCMQALRSPLTFGGGTKVELK
notes: also called antibody 2B6; monoclonal antibody 2B6; copies: 2 + 2
  binding: binds

B2: 1D11 (antibody, V domains shown)
VH: EVQLVESGGGLVQPGGSLRLSCAASGFTFSSYDMSWVRQAPGKGLEWVSSISSVTSYISYADSVKGRFTISRDNAKNSLSLQMNSLKTEDTAVYYCTTENWNFDFWGQGVLVTVSS
VL: DVVMTQSPLSLATTPGQPASISCRSSQSLVHSNGNTYLSWYQQKPGQPPRLLIYEVSNRDSGVPDRFSGSGAGTDFTLKISRVEAEDVGVYYCGQGTHWPPFTFGPGTKLDIK
notes: also called antibody 1D11; monoclonal antibody 1D11; copies: 2 + 2
  binding: binds
